This continues a long series; more values of the same kind are listed elsewhere.
Tested on: TFG-MET allograft tumors
Experiment: RNA-sequencing, differential expression and GSEA of TFG-MET allograft tumors
Type: in vivo, mouse
Settings: CAP v Veh
Description: Error bars display standard error of mean, statistical significance was determined using t-test analysis. (****;p<0.0001, ***;p<0.001, **;p<0.01, *;p<0.05). […] Each dot represents an individual replicate. Error bars display standard error of the mean.
Each dot represents one gene.

`CNC(=O)c1ccc(-c2cnc3ncc(Cc4ccc5ncccc5c4)n3n2)cc1F` [Capmatinib] showed an ES (GOMF_GTPASE_BINDING) of -0.307, an NES (GOMF_GTPASE_BINDING, padj 0.0790502) of -1.379 and an ES (GOMF_GUANYL_NUCLEOTIDE_EXCHANGE_FACTOR_ACTIVITY) of -0.3145. For the same compound, the NES (GOMF_GUANYL_NUCLEOTIDE_EXCHANGE_FACTOR_ACTIVITY, padj 0.0854011) was -1.393, the ES (GOMF_G_PROTEIN_COUPLED_CHEMOATTRACTANT_RECEPTOR_ACTIVITY) was 0.6196 and the NES (GOMF_G_PROTEIN_COUPLED_CHEMOATTRACTANT_RECEPTOR_ACTIVITY, padj 0.00152281) was 2.249. For the same compound, the ES (GOMF_G_PROTEIN_COUPLED_RECEPTOR_ACTIVITY) was 0.2666, the NES (GOMF_G_PROTEIN_COUPLED_RECEPTOR_ACTIVITY, padj 0.000282843) was 1.567 and the ES (GOMF_HELICASE_ACTIVITY) was -0.64. For the same compound, the NES (GOMF_HELICASE_ACTIVITY, padj 4.89838e-20) was -2.769, the ES (GOMF_HISTONE_BINDING) was -0.5265 and the NES (GOMF_HISTONE_BINDING, padj 6.40741e-14) was -2.371. For the same compound, the ES (GOMF_HISTONE_LYSINE_N_METHYLTRANSFERASE_ACTIVITY) was -0.5659, the NES (GOMF_HISTONE_LYSINE_N_METHYLTRANSFERASE_ACTIVITY, padj 0.00141653) was -1.972 and the ES (GOMF_HISTONE_METHYLTRANSFERASE_ACTIVITY) was -0.578. The NES (GOMF_HISTONE_METHYLTRANSFERASE_ACTIVITY, padj 4.07841e-5) was -2.113, the ES (GOMF_HORMONE_RECEPTOR_BINDING) was -0.3216 and the NES (GOMF_HORMONE_RECEPTOR_BINDING, padj 0.0880974) was -1.395. It also gave an ES (GOMF_HYDROLASE_ACTIVITY_ACTING_ON_ESTER_BONDS) of -0.2542, an NES (GOMF_HYDROLASE_ACTIVITY_ACTING_ON_ESTER_BONDS, padj 0.0916898) of -1.229 and an ES (GOMF_IMMUNE_RECEPTOR_ACTIVITY) of 0.4106. It also gave an NES (GOMF_IMMUNE_RECEPTOR_ACTIVITY, padj 2.36378e-5) of 2.046, an ES (GOMF_IMMUNOGLOBULIN_BINDING) of 0.7301 and an NES (GOMF_IMMUNOGLOBULIN_BINDING, padj 0.000392792) of 2.335. The ES (GOMF_IMMUNOGLOBULIN_RECEPTOR_BINDING) was 0.5734, the ES (GOMF_INTRAMOLECULAR_TRANSFERASE_ACTIVITY) was -0.6685 and the NES (GOMF_INTRAMOLECULAR_TRANSFERASE_ACTIVITY, padj 0.000264158) was -2.088. It also gave an ES (GOMF_KINASE_ACTIVITY) of -0.2546, an NES (GOMF_KINASE_ACTIVITY, padj 0.0762355) of -1.233 and an ES (GOMF_LIGASE_ACTIVITY) of -0.4074. The NES (GOMF_LIGASE_ACTIVITY, padj 0.000514149) was -1.766, the ES (GOMF_LIGASE_ACTIVITY_FORMING_CARBON_OXYGEN_BONDS) was -0.5947 and the NES (GOMF_LIGASE_ACTIVITY_FORMING_CARBON_OXYGEN_BONDS, padj 0.000318046) was -2.072. The ES (GOMF_LIPASE_ACTIVITY) was 0.3866, the NES (GOMF_LIPASE_ACTIVITY, padj 0.000299605) was 1.954 and the ES (GOMF_LIPID_BINDING) was 0.1766. For the same compound, the NES (GOMF_LIPID_BINDING, padj 0.0918501) was 1.107, the ES (GOMF_LYSINE_N_METHYLTRANSFERASE_ACTIVITY) was -0.5094 and the NES (GOMF_LYSINE_N_METHYLTRANSFERASE_ACTIVITY, padj 0.00197843) was -1.862. For the same compound, the ES (GOMF_MAP_KINASE_KINASE_KINASE_ACTIVITY) was -0.5228, the ES (GOMF_METHYLATED_HISTONE_BINDING) was -0.575 and the NES (GOMF_METHYLATED_HISTONE_BINDING, padj 5.19742e-6) was -2.204. It also gave an ES (GOMF_MIRNA_BINDING) of -0.6168, an NES (GOMF_MIRNA_BINDING, padj 0.00196305) of -1.991 and an ES (GOMF_MODIFICATION_DEPENDENT_PROTEIN_BINDING) of -0.4094. For the same compound, the NES (GOMF_MODIFICATION_DEPENDENT_PROTEIN_BINDING, padj 0.000709975) was -1.763, the ES (GOMF_MRNA_3_UTR_BINDING) was -0.5487 and the NES (GOMF_MRNA_3_UTR_BINDING, padj 2.40849e-6) was -2.181. The ES (GOMF_MRNA_5_UTR_BINDING) was -0.7352, the NES (GOMF_MRNA_5_UTR_BINDING, padj 3.19533e-5) was -2.252 and the ES (GOMF_MRNA_BINDING) was -0.5486. For the same compound, the NES (GOMF_MRNA_BINDING, padj 4.89838e-20) was -2.5124, the ES (GOMF_NAD_P_H_DEHYDROGENASE_QUINONE_ACTIVITY) was 0.5908 and the NES (GOMF_NAD_P_H_DEHYDROGENASE_QUINONE_ACTIVITY, padj 3.96987e-6) was 2.575. For the same compound, the ES (GOMF_NUCLEAR_HORMONE_RECEPTOR_BINDING) was -0.3346, the ES (GOMF_NUCLEASE_ACTIVITY) was -0.4291 and the NES (GOMF_NUCLEASE_ACTIVITY, padj 2.24652e-5) was -1.896. The ES (GOMF_NUCLEOCYTOPLASMIC_CARRIER_ACTIVITY) was -0.6591, the NES (GOMF_NUCLEOCYTOPLASMIC_CARRIER_ACTIVITY, padj 0.000115181) was -2.145 and the ES (GOMF_NUCLEOSOME_BINDING) was -0.5073. The NES (GOMF_NUCLEOSOME_BINDING, padj 0.00152684) was -1.901, the ES (GOMF_NUCLEOTIDYLTRANSFERASE_ACTIVITY) was -0.4822 and the NES (GOMF_NUCLEOTIDYLTRANSFERASE_ACTIVITY, padj 4.12475e-5) was -2.007. It also gave an ES (GOMF_N_METHYLTRANSFERASE_ACTIVITY) of -0.4852, an NES (GOMF_N_METHYLTRANSFERASE_ACTIVITY, padj 0.000271158) of -1.95 and an ES (GOMF_OMEGA_PEPTIDASE_ACTIVITY) of -0.4572. It also gave an NES (GOMF_OMEGA_PEPTIDASE_ACTIVITY, padj 0.00133141) of -1.8407, an ES (GOMF_ORGANIC_CATION_TRANSMEMBRANE_TRANSPORTER_ACTIVITY) of 0.5091 and an NES (GOMF_ORGANIC_CATION_TRANSMEMBRANE_TRANSPORTER_ACTIVITY, padj 0.0936743) of 1.697. It also gave an ES (GOMF_OXIDOREDUCTASE_ACTIVITY) of 0.2552, an NES (GOMF_OXIDOREDUCTASE_ACTIVITY, padj 1.57379e-7) of 1.611 and an ES (GOMF_OXIDOREDUCTASE_ACTIVITY_ACTING_ON_NAD_P_H) of 0.4324. For the same compound, the NES (GOMF_OXIDOREDUCTASE_ACTIVITY_ACTING_ON_NAD_P_H, padj 1.99489e-5) was 2.169, the ES (GOMF_OXIDOREDUCTASE_ACTIVITY_ACTING_ON_NAD_P_H_QUINONE_OR_SIMILAR_COMPOUND_AS_ACCEPTOR) was 0.5724 and the NES (GOMF_OXIDOREDUCTASE_ACTIVITY_ACTING_ON_NAD_P_H_QUINONE_OR_SIMILAR_COMPOUND_AS_ACCEPTOR, padj 2.1943e-6) was 2.564. It also gave an ES (GOMF_P53_BINDING) of -0.4895, an NES (GOMF_P53_BINDING, padj 0.0022957) of -1.862 and an ES (GOMF_PEPTIDASE_REGULATOR_ACTIVITY) of 0.2445. It also gave an NES (GOMF_PEPTIDASE_REGULATOR_ACTIVITY, padj 0.0995416) of 1.297 and an ES (GOMF_PEPTIDE_RECEPTOR_ACTIVITY) of 0.272.

From publication PMC11157767 (Molecular Cancer, 2024)
